Measured values: the supplement of paper PMC10735217
Structures can show the parent of a compound that is named as a salt. This is one part of the list. Repeats in this data set agree poorly, so a single value says little.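 The human kidney-derived cells carry a stably integrated construct of eight TEAD-binding elements driving luciferase, read by luminescence in a drug-repurposing library screen. A compound counts as a hit when its signal is more than five robust Z scores above the plate mean.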

Test system: HEK293A TEAD-LUC reporter
Assay: TEAD-luciferase reporter activity (YAP activation), robust Z score vs plate; higher = stronger YAP/TEAD activation
Conditions: 24 h

| Compound | TEAD-luciferase reporter activity (compound concentration: 200 nM) | TEAD-luciferase reporter activity (compound concentration: 2 uM) | TEAD-luciferase reporter activity (compound concentration: 10 uM) |
| --- | --- | --- | --- |
| O=C1CCCc2c1ccn2CCCCN1CCN(c2cccc(C(F)(F)F)c2)CC1 | inactive: -0.731 | inactive: -1.66 | inactive: 1.01 |
| O=C(NCC(c1ccccc1)n1ccnc1)c1ccc(-c2ccc(Cl)cc2)cc1 (centres undefined) | inactive: -0.68 | inactive: -2.02 | inactive: -3.03 |
| NC(=O)c1ccc[n+]([C@@H]2O[C@H](CO)[C@@H](O)[C@H]2O)c1 [Nicotinamide riboside_tab_] | inactive: -0.121 | inactive: 0.117 | inactive: 0.135 |
| O=C(CCCCCCC(=O)Nc1ccccc1)NO [Vorinostat] | inactive: -3.66 | – | active: 36.4 |
| O=C(CCCCCCC(=O)Nc1ccccc1)NO [vorinostat] | – | active: 24.6 | – |
| Cc1cc(-c2nc(-c3ccc(OC(F)(F)F)cc3)no2)nn1Cc1ccnc(N2CCN(C3CC3)CC2)c1 | inactive: -1.45 | inactive: 0.129 | inactive: 0.111 |
| CCOCCn1nc(C(=O)NS(C)(=O)=O)c2nc(N(C)CC)nc(Nc3cc(C)ccn3)c21 | inactive: 2.18 | inactive: -1.44 | inactive: -0.507 |
| Cc1cc(C)c(NC(=O)N(Cc2ccc3c(c2)Cc2ccccc2-3)C2CCCCCC2)c(C)c1 | inactive: 0.595 | inactive: 0.174 | inactive: 3.84 |
| CCC(CO)Nc1nc(NCc2ccccc2)c2ncn(C(C)C)c2n1 (stereo in doubt) [(R)-Roscovitin] | inactive: -1.58 | – | inactive: 1.26 |
| CCOC(=O)N1c2ccccc2Sc2ccccc21 | inactive: -1.41 | inactive: -0.24 | inactive: 1.49 |
| Cc1ccccc1OCC(O)CNCCOc1ccc(C(N)=O)cc1 (centres undefined) [tolamolol] | inactive: -0.542 | inactive: 1.85 | inactive: 2.45 |
| CNC(=O)C1CCN(Cc2cc(F)cc(NC(=O)Nc3ccc(C)nc3)c2)CC1 | inactive: -1.51 | inactive: 4.16 | inactive: -1.83 |
| C/C(=C(/CCOC(=O)C(C)C)SS/C(CCOC(=O)C(C)C)=C(\C)N(C=O)Cc1cnc(C)nc1N)N(C=O)Cc1cnc(C)nc1N [sulbutiamine] | inactive: -0.844 | inactive: -0.881 | inactive: -2.09 |
| CN(C)CCNC(=O)c1cccc2cc3ccccc3nc12 | inactive: 1.35 | inactive: 3.46 | inactive: 2.89 |
| CCOC(=O)O[C@]1(C(=O)OCCl)CC[C@H]2[C@@H]3CCC4=CC(=O)C=C[C@]4(C)[C@H]3[C@@H](O)C[C@@]21C | inactive: -0.893 | – | inactive: 2.23 |
| CCOC(=O)O[C@]1(C(=O)OCCl)CC[C@H]2[C@@H]3CCC4=CC(=O)C=C[C@]4(C)[C@H]3[C@@H](O)C[C@@]21C [Loteprednol etabonate] | – | inactive: -0.59 | – |
| CN1CCN(CCCN2c3ccccc3Sc3ccc(S(=O)(=O)N(C)C)cc32)CC1 | inactive: 0.218 | inactive: 1.1 | inactive: -0.67 |
| CN[C@@H]1[C@H](O)[C@H](NC)[C@H]2O[C@@]3(O)C(=O)C[C@@H](C)O[C@H]3O[C@@H]2[C@H]1O [Spectinomycin hydrochloride] | – | inactive: -1.93 | – |
| CN[C@@H]1[C@H](O)[C@H](NC)[C@H]2O[C@@]3(O)C(=O)C[C@@H](C)O[C@H]3O[C@@H]2[C@H]1O | inactive: -1.33 | – | inactive: 1.9 |

| Compound | TEAD-luciferase reporter activity (compound concentration: 200 nM) | TEAD-luciferase reporter activity (compound concentration: 2 uM) | TEAD-luciferase reporter activity (compound concentration: 10 uM) |
| --- | --- | --- | --- |
| O=c1[nH]c2cc(-n3ccnc3)c([N+](=O)[O-])cc2[nH]c1=O | inactive: -1.71 | inactive: -0.39 | inactive: 0.656 |
| Cc1c(O)ccc2c1OCC(c1ccc(O)cc1)C2c1ccc(O)cc1 (centres undefined) | inactive: 0.647 | inactive: 2.07 | inactive: 0.734 |
| CCC[C@]1(CC(=O)OCC)OCCc2c1[nH]c1c(C)ccc(C#N)c21 | inactive: 1.69 | inactive: -0.176 | inactive: 2.58 |
| CN1C[C@H]2C[C@@H]1CN2c1cc2c(cc1F)c(=O)c(C(=O)O)cn2C1CC1 [Danofloxacin mesylate] | inactive: -1.56 | inactive: 1.9 | inactive: -0.533 |
| CC1=C(/C=C/C(C)=C/C=C/C(C)=C/C=C/C=C(C)/C=C/C=C(C)/C=C/C2=C(C)C[C@@H](O)CC2(C)C)C(C)(C)C[C@H](O)C1 | inactive: -0.705 | inactive: -1.28 | inactive: 0.411 |
| Fc1ccc(-c2ccc(CN3CCN(c4cccc5ccoc45)CC3)[nH]2)cc1 | inactive: 2.39 | inactive: 0.358 | inactive: 3.3 |
| O=C(O)CNC(=O)CNC(=O)CS | inactive: -1.16 | inactive: -0.957 | inactive: 0.0359 |
| O=c1[nH]c2ccccc2c2cc(CO)nn12 [pirquinozol] | inactive: -0.447 | inactive: -1.18 | inactive: -0.233 |
| COc1cc(-n2cnc3cc(-c4ccc(Cl)cc4)sc3c2=O)ccc1OCCN1CCCC1 | inactive: -0.666 | inactive: -0.991 | inactive: 0.873 |
| O=P(O)(O)[C@@H](CCCc1cccc(Oc2ccccc2)c1)S(=O)(=O)O | inactive: 0.338 | inactive: -1.57 | inactive: -2.31 |
| O=C(O)C1Cc2cc3c(-c4ccccc4F)noc3c(Cl)c2O1 (centres undefined) | inactive: -1.25 | inactive: 1.36 | inactive: -1.13 |
| CCN1C(=S)N(c2ccc(N3CCN(c4ccc(O)cc4)CC3)cc2)C(=O)C1(C)C | inactive: -2.08 | inactive: -0.783 | inactive: -0.744 |
| CCCCN(CCCC)C(=O)OCC[N+](C)(C)CC | inactive: -1.36 | inactive: -0.116 | inactive: 2.58 |
| NC(CC1c2ccccc2Sc2ccccc21)(C(=O)O)C12C3C4C1C1C2C3C41C(=O)O (centres undefined) | inactive: -0.92 | inactive: 3.66 | inactive: 1.14 |
| NC(=O)C1(N2CCCCC2)CCN(CCCN2c3ccccc3CCc3ccccc32)CC1 | inactive: -0.76 | inactive: 0.401 | inactive: -1.3 |
| CN1c2ccccc2CNc2cncnc21 | inactive: -0.117 | inactive: -1.1 | inactive: -0.856 |
| CC1(C)CCCN(CCCOc2ccc(C3CCN(C(=O)c4ccc(CCC(=O)O)c5ccccc45)CC3)cc2)C1 | inactive: -2.09 | inactive: -1.06 | inactive: 0.0206 |
| CC(=O)OCC(=O)Nc1cc(C#N)cc(NC(=O)COC(C)=O)c1Cl [Acreozast] | inactive: 2.24 | inactive: -0.802 | inactive: -1.29 |
| NS(=O)(=O)c1cc2c(cc1Cl)NC(C(Cl)Cl)NS2(=O)=O (centres undefined) [Trichlormethiazide] | – | inactive: -1.51 | – |

| Compound | TEAD-luciferase reporter activity (compound concentration: 200 nM) | TEAD-luciferase reporter activity (compound concentration: 2 uM) | TEAD-luciferase reporter activity (compound concentration: 10 uM) |
| --- | --- | --- | --- |
| NS(=O)(=O)c1cc2c(cc1Cl)NC(C(Cl)Cl)NS2(=O)=O (centres undefined) [Trichloromethiazide] | inactive: -2.05 | – | inactive: 0.115 |
| CCCC(=O)Nc1ncnc2c1ncn2[C@@H]1O[C@@H]2COP(=O)(O)O[C@H]2[C@H]1OC(=O)CCC [bucladesine] | inactive: -2.23 | inactive: -0.864 | inactive: -1.85 |
| CC1CCc2c(N3CCC(OC(=O)[C@H](C)N)CC3)c(F)cc3c(=O)c(C(=O)O)cn1c23 (some centres undefined) | inactive: -1.11 | inactive: -0.619 | inactive: -0.337 |
| O=C1/C(=C/c2ccccc2)C(NC2CCCCC2)c2ccccc21 (centres undefined) | inactive: 0.0312 | inactive: -0.429 | inactive: -0.75 |
| COc1nccnc1N(C(C)=O)S(=O)(=O)c1ccc(N)cc1 | inactive: 1.39 | inactive: -0.603 | inactive: -0.126 |
| CCCCCCCCC(=O)N[C@H](CN1CCCC1)[C@H](O)c1ccc2c(c1)OCCO2 | inactive: -2.12 | inactive: -1.66 | inactive: 0.683 |
| C[C@@H](O)[C@H]1C(=O)N2C(C(=O)O)=C(S[C@@H]3CN[C@H](CNS(N)(=O)=O)C3)[C@H](C)[C@H]12 [Doripenem] | – | inactive: 2.33 | – |
| C[C@@H](O)[C@H]1C(=O)N2C(C(=O)O)=C(S[C@@H]3CN[C@H](CNS(N)(=O)=O)C3)[C@H](C)[C@H]12 [Doripenem Hydrate] | inactive: 0.142 | – | inactive: 0.152 |
| Cc1cc(C(=C2C=CC(=N)C=C2)c2ccc(N)c(C)c2)ccc1N | inactive: -0.887 | inactive: 1.18 | inactive: -0.567 |
| COCCN(CCOC)c1nc(C)nc2c(-c3ccc(OC)cc3C)c(C)nn12 | inactive: 0.226 | inactive: -0.0597 | inactive: 1.02 |
| CCN(/N=C/c1ccc([N+](=O)[O-])o1)C(N)=O | inactive: -0.593 | inactive: -1.25 | inactive: -0.518 |
| CC1(C)Oc2ccc(S(=O)(=O)c3ccccc3)cc2[C@@H](N2CCCC2=O)[C@@H]1O | inactive: 1.86 | inactive: -1.05 | inactive: -0.372 |
| CCOC(=O)C(C#N)=C(c1ccccc1)c1ccccc1 | inactive: 0.26 | inactive: -0.975 | inactive: -0.486 |
| CNC1Cc2ccccc2N(C)c2ccccc21 (centres undefined) | inactive: -0.739 | inactive: -0.236 | inactive: 3.36 |
| CC[C@]1(c2ccccc2)NC(=O)N(C)C1=O [(R)-(?)-Mephenytoin] | – | inactive: -0.49 | – |
| CC[C@]1(c2ccccc2)NC(=O)N(C)C1=O [(R)-Mephenytoin] | inactive: -0.232 | – | inactive: 0.0849 |
| O=C(/C=C/c1ccc(O)c(O)c1)O[C@H](Cc1ccc(O)c(O)c1)C(=O)O [Rosmarinic acid] | inactive: -1.35 | inactive: -0.308 | inactive: 0.766 |
| CC(=O)C(=Cc1ccc(S(C)(=O)=O)cc1)C(C)=O | inactive: 0.0939 | inactive: -1.45 | inactive: -0.907 |

An excerpt from above with just TEAD-luciferase reporter activity (compound concentration: 200 nM) and TEAD-luciferase reporter activity (compound concentration: 2 uM):
Compound | TEAD-luciferase reporter activity (compound concentration: 200 nM) | TEAD-luciferase reporter activity (compound concentration: 2 uM)
CCC[C@]1(CC(=O)OCC)OCCc2c1[nH]c1c(C)ccc(C#N)c21 | inactive: 1.69 | inactive: -0.176
CN1C[C@H]2C[C@@H]1CN2c1cc2c(cc1F)c(=O)c(C(=O)O)cn2C1CC1 [Danofloxacin mesylate] | inactive: -1.56 | inactive: 1.9
CC1=C(/C=C/C(C)=C/C=C/C(C)=C/C=C/C=C(C)/C=C/C=C(C)/C=C/C2=C(C)C[C@@H](O)CC2(C)C)C(C)(C)C[C@H](O)C1 | inactive: -0.705 | inactive: -1.28
